{"source": "the supplement of paper PMC3334620", "note": "In all, about 33,000 sequences were measured (“E-score (-0.5 to 0.5)”: median about -0.0059, highest 2% from about 0.26 on). The list shows a part of the results."}
{"target": "T1, Cin5 (UniProt P40917)", "T1 sequence": "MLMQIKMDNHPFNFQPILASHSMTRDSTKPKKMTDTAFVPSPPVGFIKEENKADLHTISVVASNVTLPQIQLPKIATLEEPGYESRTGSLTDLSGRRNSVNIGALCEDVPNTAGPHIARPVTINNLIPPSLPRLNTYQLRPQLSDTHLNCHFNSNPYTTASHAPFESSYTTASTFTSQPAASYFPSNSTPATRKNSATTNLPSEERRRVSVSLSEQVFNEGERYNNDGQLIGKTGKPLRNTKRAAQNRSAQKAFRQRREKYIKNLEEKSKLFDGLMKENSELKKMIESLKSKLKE", "test": "PBM E-score (8-mer binding enrichment) (E-score (-0.5 to 0.5)); higher = stronger / more preferred TF binding", "details": "protein concentration: 100 nM; construct: GST-full length", "procedure,_shortened": "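Universal all-10-mer Agilent arrays, fresh or stripped once, were converted to double-stranded form by primer extension. GST-tagged yeast transcription factors from PURExpress in vitro transcription/translation, full-length or DNA-binding domain only, were applied at about 100-200 nM and detected with fluorescent anti-GST. After masliner normalisation, the Universal PBM Analysis Suite scored each ungapped eight-base word together with its reverse complement by E-score.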"}
{"sequence": "ATATAGCA", "PBM E-score": 0.0799}
{"sequence": "GCTACACC", "PBM E-score": -0.218}
{"sequence": "ACACGCGG", "PBM E-score": -0.0884}
{"sequence": "CAAACCAA", "PBM E-score": 0.161}
{"sequence": "AAGTATCA", "PBM E-score": 0.08}
{"sequence": "ATCGTTGG", "PBM E-score": -0.0306}
{"sequence": "AAGATTAC", "PBM E-score": 0.255}
{"sequence": "GCGATAGA", "PBM E-score": 0.0484}
{"sequence": "ACCTGAGG", "PBM E-score": -0.154}
{"sequence": "GATCGGAC", "PBM E-score": 0.0225}
{"sequence": "AGGTGGTC", "PBM E-score": -0.0846}
{"sequence": "ATATGCAC", "PBM E-score": 0.146}
{"sequence": "GTTACCCA", "PBM E-score": -0.206}
{"sequence": "GGATTGAC", "PBM E-score": 0.049}
{"sequence": "CCGCGAAA", "PBM E-score": 0.0021}
{"sequence": "ACTTAATA", "PBM E-score": 0.26}
{"sequence": "AGCCGTGC", "PBM E-score": -0.304}
{"sequence": "CAAAGCTA", "PBM E-score": -0.0452}
{"sequence": "ACGCCAAA", "PBM E-score": -0.175}
{"sequence": "CACTATGC", "PBM E-score": 0.048}
{"sequence": "AGAATCGC", "PBM E-score": -0.0275}
{"sequence": "GTCGTACA", "PBM E-score": 0.0969}
{"sequence": "CCACACGG", "PBM E-score": -0.0184}
{"sequence": "ATGCGGAA", "PBM E-score": 0.0572}
{"sequence": "AACACTAC", "PBM E-score": 0.127}
{"sequence": "CGGCACAG", "PBM E-score": -0.063}
{"sequence": "GAGATTTA", "PBM E-score": -0.0654}
{"sequence": "GCATTTCC", "PBM E-score": 0.0946}
{"sequence": "GTCCAGGA", "PBM E-score": -0.144}
{"sequence": "TTCACCAA", "PBM E-score": -0.00088}
{"sequence": "AGTATCAC", "PBM E-score": 0.0484}
{"sequence": "GATCTTCC", "PBM E-score": -0.173}
{"sequence": "AATCACGG", "PBM E-score": 0.238}
{"sequence": "GACGATAA", "PBM E-score": 0.108}
{"sequence": "CTTAATGA", "PBM E-score": 0.0487}
{"sequence": "CCGACTAG", "PBM E-score": -0.101}
{"sequence": "AAATTTAT", "PBM E-score": 0.141}
{"sequence": "AGCGGCAT", "PBM E-score": 0.167}
{"sequence": "CCCGTCAC", "PBM E-score": -0.153}
{"sequence": "ATCGATGC", "PBM E-score": 0.168}
{"sequence": "AGAAGCCA", "PBM E-score": 0.0129}
{"sequence": "ATGAGGAG", "PBM E-score": -0.13}
{"sequence": "GATGCGCA", "PBM E-score": 0.0645}
{"sequence": "GGCGGTAC", "PBM E-score": -0.0508}
{"sequence": "ATGTGTGG", "PBM E-score": 0.0509}
{"sequence": "TCAGCGCA", "PBM E-score": 0.00579}
{"sequence": "ACATATTA", "PBM E-score": 0.266}
{"sequence": "CTGGTAAG", "PBM E-score": -0.00442}
{"sequence": "AAGAGGAA", "PBM E-score": 0.0137}
{"sequence": "AGGTTTGA", "PBM E-score": 0.014}
{"sequence": "ACTCGTTA", "PBM E-score": -0.0616}
{"sequence": "ACAAATAT", "PBM E-score": 0.23}
{"sequence": "GGAGCGTA", "PBM E-score": 0.00302}
{"sequence": "AGACAACA", "PBM E-score": 0.0664}
{"sequence": "TCTCTCAA", "PBM E-score": 0.18}
{"sequence": "AAACTAAC", "PBM E-score": 0.21}
{"sequence": "AAGACACC", "PBM E-score": -0.0717}
{"sequence": "ATTAGTCC", "PBM E-score": 0.168}
{"sequence": "GATTCCCA", "PBM E-score": -0.0826}
{"sequence": "AAGCGTTC", "PBM E-score": -0.0382}
{"sequence": "AGCATCCT", "PBM E-score": 0.0649}
{"sequence": "AGACATCT", "PBM E-score": -0.122}
{"sequence": "GGTGTAGA", "PBM E-score": -0.0858}
{"sequence": "AGCACCGG", "PBM E-score": -0.145}
{"sequence": "ATCTCCAC", "PBM E-score": -0.0553}
{"sequence": "AATAAAAT", "PBM E-score": 0.129}
{"sequence": "GCCTGGCA", "PBM E-score": -0.258}
{"sequence": "ATGCAATA", "PBM E-score": 0.135}
{"sequence": "GCAACAAC", "PBM E-score": 0.00333}
{"sequence": "CGAAATAA", "PBM E-score": 0.23}
{"sequence": "TCACTTCA", "PBM E-score": -0.0777}
{"sequence": "AAAGCTTA", "PBM E-score": 0.147}
{"sequence": "ACAACCAA", "PBM E-score": 0.0847}
{"sequence": "GAGCATAC", "PBM E-score": -0.133}
{"sequence": "CGAATTCC", "PBM E-score": 0.0759}
{"sequence": "AGTCCCAC", "PBM E-score": -0.0661}
{"sequence": "GAACCCCC", "PBM E-score": -0.49}
{"sequence": "AATAGTCC", "PBM E-score": -0.0671}
{"sequence": "GGGAGGAC", "PBM E-score": -0.179}
{"sequence": "ACCGAAGT", "PBM E-score": 0.114}
{"sequence": "CGGACACA", "PBM E-score": -0.106}
{"sequence": "ATGCCTCC", "PBM E-score": -0.068}
{"sequence": "CCCTCAGA", "PBM E-score": -0.131}
{"sequence": "CGCTTGCC", "PBM E-score": -0.163}
{"sequence": "CACGGACG", "PBM E-score": -0.0169}
{"sequence": "TTAGAGAA", "PBM E-score": -0.212}
